Reference: paper PMC11315909
Results are given in words; binding and its absence hold for the method and conditions named. In cells and extracts the contact can be indirect. These calls come from enrichment with a bait or labelling near it, and not all partners need be listed.

By UniProt entry, the sequences of proteins in these tests, tags left out.
UniProt Q9WTU0: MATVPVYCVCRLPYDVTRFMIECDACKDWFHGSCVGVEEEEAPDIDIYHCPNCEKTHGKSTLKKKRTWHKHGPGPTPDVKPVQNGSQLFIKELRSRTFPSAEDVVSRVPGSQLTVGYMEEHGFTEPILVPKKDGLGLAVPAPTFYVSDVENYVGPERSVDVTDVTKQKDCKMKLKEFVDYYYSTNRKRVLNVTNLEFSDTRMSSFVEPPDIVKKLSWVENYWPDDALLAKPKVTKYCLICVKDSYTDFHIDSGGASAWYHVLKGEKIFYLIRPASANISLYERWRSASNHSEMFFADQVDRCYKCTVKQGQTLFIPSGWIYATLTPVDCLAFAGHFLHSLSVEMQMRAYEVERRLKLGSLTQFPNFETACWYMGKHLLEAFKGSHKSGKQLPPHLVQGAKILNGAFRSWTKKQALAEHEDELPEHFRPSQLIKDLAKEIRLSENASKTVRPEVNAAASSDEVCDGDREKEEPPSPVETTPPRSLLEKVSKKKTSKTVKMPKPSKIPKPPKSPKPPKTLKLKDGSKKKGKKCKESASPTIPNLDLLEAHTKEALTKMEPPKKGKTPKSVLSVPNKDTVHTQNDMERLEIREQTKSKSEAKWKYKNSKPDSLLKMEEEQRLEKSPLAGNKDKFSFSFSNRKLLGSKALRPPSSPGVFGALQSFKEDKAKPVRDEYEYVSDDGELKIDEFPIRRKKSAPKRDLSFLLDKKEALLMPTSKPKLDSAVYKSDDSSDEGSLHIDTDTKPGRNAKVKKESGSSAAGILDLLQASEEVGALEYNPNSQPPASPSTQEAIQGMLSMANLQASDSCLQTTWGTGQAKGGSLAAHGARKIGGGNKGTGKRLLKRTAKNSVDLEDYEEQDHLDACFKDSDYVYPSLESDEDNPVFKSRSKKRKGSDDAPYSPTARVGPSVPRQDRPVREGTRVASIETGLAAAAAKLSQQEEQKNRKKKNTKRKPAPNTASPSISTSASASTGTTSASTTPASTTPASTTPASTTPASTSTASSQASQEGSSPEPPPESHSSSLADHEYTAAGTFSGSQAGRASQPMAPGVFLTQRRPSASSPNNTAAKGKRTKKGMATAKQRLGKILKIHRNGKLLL
UniProt Q08943: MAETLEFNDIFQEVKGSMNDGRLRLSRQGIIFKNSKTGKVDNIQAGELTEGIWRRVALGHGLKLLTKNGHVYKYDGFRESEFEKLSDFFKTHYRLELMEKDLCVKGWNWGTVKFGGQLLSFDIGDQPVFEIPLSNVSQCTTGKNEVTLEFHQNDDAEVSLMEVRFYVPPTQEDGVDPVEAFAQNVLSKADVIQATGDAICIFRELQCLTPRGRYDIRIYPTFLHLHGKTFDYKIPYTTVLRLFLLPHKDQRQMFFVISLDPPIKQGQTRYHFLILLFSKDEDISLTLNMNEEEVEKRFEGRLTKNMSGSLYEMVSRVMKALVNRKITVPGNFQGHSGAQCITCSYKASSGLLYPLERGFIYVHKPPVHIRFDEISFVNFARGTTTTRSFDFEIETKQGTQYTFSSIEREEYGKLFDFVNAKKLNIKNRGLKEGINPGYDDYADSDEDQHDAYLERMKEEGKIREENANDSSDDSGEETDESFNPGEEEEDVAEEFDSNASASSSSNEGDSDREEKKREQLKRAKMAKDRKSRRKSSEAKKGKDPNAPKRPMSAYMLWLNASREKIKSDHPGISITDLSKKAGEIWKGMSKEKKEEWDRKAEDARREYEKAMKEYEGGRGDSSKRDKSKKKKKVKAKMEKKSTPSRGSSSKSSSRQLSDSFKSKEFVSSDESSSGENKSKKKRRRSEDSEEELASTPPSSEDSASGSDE

B1: heterochromatin protein 1 binding protein 3 (HP1BP3) (protein, UniProt Q3TEA8 1-554)
chain: MATDMSQGELIHPKALPLIVGAQLIHADKLGEKAEDTTMPIRRAVNSTRETPPKSKLAEGEEEKPEPDGSSEESISTVEEQENETPPATSSEAEQPKGEPESGEKEENNNKSAEEPKKDEKDQSKEKEKKVKKTIPAWATLSASQLARAQRQTPMASSPRPKMDAILTEAIKACFQKTGASVVAIRKYIIHKYPSLGLERRGYLLKQALKRELNRGVIRQVKGKGASGSFVVVQKSKPPQKSKNRKKGSALDPEPQVKLEDVLPLAFTRLCEPKEASYSLIRKYVSQYYPKLRVDIRPQLLKNALQRAVERGQLEQITGKGASGTFQLKKSGEKPLLGGSLMEYAILSAIAAMNEPKTCSTTALKKYVLENHPGANSNYQMHLLKKTLQKCEKNGWLEQISGKGFSGTFQLSFPYYPSPGVLFPKKESGGSDDEDEDDDDDESSEDSEDEEPPPKRSLQKKTPAKSQGKTASMKQRGSKPARKVPAAQRGKVRPLPKKAPPKAKTPARKARPSPSVIKKPSGSSSRKPIASARKEAKLPGKGKSAMKKSFKTKK

The molecules below were run against PHF2 (mouse (endogenous in NSCs)) (UniProt Q9WTU0) (assay: affinity purification with mass spectrometry; endogenous PHF2 immunoprecipitated with anti-PHF2 antibody from shCT and shPHF2 mouse NSC extracts (IPH buffer: 50 mM Tris-HCl pH 7.5, 150 mM NaCl, 5 mM EDTA, 0.5% NP-40), IgGs as control; immunopellets analysed by LC-MS/MS).

binding	Molecule
binds	SSRP1 (from UniProt Q08943 1-708)
binds	RL14 (from UniProt Q9CR57 1-217)
binds	RL29 (from UniProt P47915 1-160)
binds	B1
